Results deposited as PubChem BioAssay AID1259405 (NCATS, 2018).
The whole screen tested about 50,000 reagents; this is an unselected part. About 4,000 of them (8%) were called active. 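Mouse siRNA library applied to hamster cells; one well for each siRNA.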 A number with no mark means an inactive call. The numbers tell different reagents against one gene apart.

Assay: 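Mouse-designed siRNAs used to find CHO productivity engineering targets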 (primary screen)
Cells: Chinese hamster CHO-K1 ovary cells with stable secreted eGFP expression
Reagents: single siRNA against mouse genes, 0.8 pmol siRNA per well (2 µl of 400 nM stock)
Duration: 3 days
Measured: 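Percent of the per-plate non-targeting control median for intracellular GFP per well by laser scanning cytometry and for cell viability by ATP luminescence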
Direction: GFP, % of control: higher = more GFP per well, higher productivity; viability (ATP), % of control: higher = more viable cells (more ATP)
Rule for the call: 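Called active when intracellular GFP, relative to negative control, is at or above 120%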

Sgms1 (sphingomyelin synthase 1) #1 gave GFP, % of control 79.6; viability (ATP), % of control 93.4.
Knock-down of Sgms1 (sphingomyelin synthase 1) #2 came out at: GFP, % of control 30.8; viability (ATP), % of control 37.6.
After knock-down of Nup43 (nucleoporin 43) #1, the screen gave GFP, % of control 21.1; viability (ATP), % of control 20.7.
Nup43 (nucleoporin 43) #2 scored GFP, % of control 71.7; viability (ATP), % of control 76.6.
With knock-down of Nup43 (nucleoporin 43) #3 the results were GFP, % of control 86.8; viability (ATP), % of control 55.3.
Camkk1 (calcium/calmodulin-dependent protein kinase kinase 1, alpha) #1 scored GFP, % of control 87.1; viability (ATP), % of control 119.
Depletion of Camkk1 (calcium/calmodulin-dependent protein kinase kinase 1, alpha) #2 resulted in: GFP, % of control 48.6; viability (ATP), % of control 43.5.
Depletion of Camkk1 (calcium/calmodulin-dependent protein kinase kinase 1, alpha) #3 resulted in: GFP, % of control 72.3; viability (ATP), % of control 61.4.
With knock-down of Ccr5 (C-C motif chemokine receptor 5) #1 the results were GFP, % of control 93.3; viability (ATP), % of control 68.
With knock-down of Ccr5 (C-C motif chemokine receptor 5) #2, the screen gave GFP, % of control 105; viability (ATP), % of control 89.8.
Depletion of Ccr5 (C-C motif chemokine receptor 5) #3 came out at: GFP, % of control 84.5; viability (ATP), % of control 75.9.
After knock-down of Naif1 (nuclear apoptosis inducing factor 1) #1, the screen gave GFP, % of control 95.5; viability (ATP), % of control 98.
With knock-down of Naif1 (nuclear apoptosis inducing factor 1) #2, the record shows GFP, % of control 88.5; viability (ATP), % of control 88.5.
Naif1 (nuclear apoptosis inducing factor 1) #3 showed GFP, % of control 112; viability (ATP), % of control 113.
After knock-down of Afap1l2 (actin filament associated protein 1-like 2) #1, the screen gave GFP, % of control 62.8; viability (ATP), % of control 63.7.
Against Afap1l2 (actin filament associated protein 1-like 2) #2 the deposit lists GFP, % of control 42.1; viability (ATP), % of control 45.9.
Against Afap1l2 (actin filament associated protein 1-like 2) #3, the entry reads GFP, % of control 89.1; viability (ATP), % of control 76.1.

2 successive reagents already listed, for reference:
Naif1 (nuclear apoptosis inducing factor 1) #2 | GFP, % of control = 88.5; viability (ATP), % of control = 88.5
Naif1 (nuclear apoptosis inducing factor 1) #3 | GFP, % of control = 112; viability (ATP), % of control = 113

The results go on:
Against Cd68 (CD68 antigen) #1, the values are GFP, % of control 86.3; viability (ATP), % of control 75.7.
For Cd68 (CD68 antigen) #2 the deposit lists GFP, % of control 53.2; viability (ATP), % of control 55.7.
With knock-down of Cd68 (CD68 antigen) #3 the results were GFP, % of control 67.8; viability (ATP), % of control 77.6.
With knock-down of Srpx (sushi-repeat-containing protein) #1 the results were GFP, % of control 108; viability (ATP), % of control 91.2.
With knock-down of Srpx (sushi-repeat-containing protein) #2 the results were GFP, % of control 150 (active); viability (ATP), % of control 129.
After knock-down of Srpx (sushi-repeat-containing protein) #3, the record shows GFP, % of control 119; viability (ATP), % of control 96.9.
Depletion of Cd200 (CD200 molecule) #1 came out at: GFP, % of control 35.9; viability (ATP), % of control 22.8.
Against Cd200 (CD200 molecule) #2 the deposit lists GFP, % of control 61; viability (ATP), % of control 79.2.
Cd200 (CD200 molecule) #3 scored GFP, % of control 68.9; viability (ATP), % of control 86.2.
After knock-down of Ggnbp1 (gametogenetin binding protein 1) #1 the results were GFP, % of control 74.9; viability (ATP), % of control 116.
Against Ggnbp1 (gametogenetin binding protein 1) #2, the values are GFP, % of control 108; viability (ATP), % of control 131.
Ggnbp1 (gametogenetin binding protein 1) #3 showed GFP, % of control 29.1; viability (ATP), % of control 17.4.
